Only a part is listed here, and it is no random draw. The calls were merged from several studies; some rest on single wells. The list shows a part of the results. This is one part of the list.
Assays:
Conditions in all cases: stereoisomer not certain
O5AL1 = tested on: T1, O5AL1
T1 sequence (whole entry): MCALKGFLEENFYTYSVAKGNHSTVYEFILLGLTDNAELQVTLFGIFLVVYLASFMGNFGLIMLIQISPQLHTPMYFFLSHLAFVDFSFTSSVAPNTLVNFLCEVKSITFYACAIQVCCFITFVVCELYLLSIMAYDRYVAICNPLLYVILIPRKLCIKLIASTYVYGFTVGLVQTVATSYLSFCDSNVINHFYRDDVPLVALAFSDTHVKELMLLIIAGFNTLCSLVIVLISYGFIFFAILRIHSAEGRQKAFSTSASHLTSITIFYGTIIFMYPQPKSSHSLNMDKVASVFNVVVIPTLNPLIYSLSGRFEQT
Summary of the method: (§1)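 Transient luciferase assays in mammalian cell lines were common, though methods varied by source. The values come from published papers and their supplementary material, with extra details from the original authors when needed. Responsive refers to a measured signal the original authors judged statistically different from baseline, and non-responsive (inactive) to the remainder.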

Chains of the proteins cited; added tags and fusions are not shown. Lines headed by an entry give the natural chain unless they say otherwise; changes in a name come on top.
UniProt Q9H208: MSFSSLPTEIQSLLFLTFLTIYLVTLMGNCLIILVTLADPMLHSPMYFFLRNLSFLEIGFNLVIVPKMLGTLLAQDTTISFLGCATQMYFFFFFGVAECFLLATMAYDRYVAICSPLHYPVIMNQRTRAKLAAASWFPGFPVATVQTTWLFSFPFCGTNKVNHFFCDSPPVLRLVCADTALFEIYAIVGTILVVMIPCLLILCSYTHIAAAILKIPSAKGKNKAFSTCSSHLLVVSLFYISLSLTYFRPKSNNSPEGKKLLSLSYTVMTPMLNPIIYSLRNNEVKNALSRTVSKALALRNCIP

O5AN1 = tested on: T2, O5AN1
T2 sequence (whole entry): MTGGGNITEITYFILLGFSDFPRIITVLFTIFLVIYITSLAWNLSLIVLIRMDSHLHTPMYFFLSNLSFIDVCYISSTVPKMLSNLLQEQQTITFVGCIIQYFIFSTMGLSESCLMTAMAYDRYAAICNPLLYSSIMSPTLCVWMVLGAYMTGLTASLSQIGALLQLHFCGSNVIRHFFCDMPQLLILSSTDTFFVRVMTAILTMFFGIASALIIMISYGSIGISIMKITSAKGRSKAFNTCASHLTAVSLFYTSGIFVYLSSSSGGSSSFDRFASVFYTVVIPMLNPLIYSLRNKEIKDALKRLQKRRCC
Summary of the method: as §1

O5AP2 = tested on: T3, O5AP2
T3 sequence (whole entry): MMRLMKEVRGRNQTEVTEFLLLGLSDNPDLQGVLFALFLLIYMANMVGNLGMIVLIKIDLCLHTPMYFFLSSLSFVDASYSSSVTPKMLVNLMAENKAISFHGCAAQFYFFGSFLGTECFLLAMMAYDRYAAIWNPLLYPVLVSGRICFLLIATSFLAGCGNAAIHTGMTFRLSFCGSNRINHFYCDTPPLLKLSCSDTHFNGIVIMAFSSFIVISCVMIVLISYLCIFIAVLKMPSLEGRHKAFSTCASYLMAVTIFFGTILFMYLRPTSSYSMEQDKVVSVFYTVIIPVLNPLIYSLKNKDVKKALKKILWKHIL
Summary of the method: as §1

O5AU1 = tested on: T4, O5AU1
T4 sequence (whole entry): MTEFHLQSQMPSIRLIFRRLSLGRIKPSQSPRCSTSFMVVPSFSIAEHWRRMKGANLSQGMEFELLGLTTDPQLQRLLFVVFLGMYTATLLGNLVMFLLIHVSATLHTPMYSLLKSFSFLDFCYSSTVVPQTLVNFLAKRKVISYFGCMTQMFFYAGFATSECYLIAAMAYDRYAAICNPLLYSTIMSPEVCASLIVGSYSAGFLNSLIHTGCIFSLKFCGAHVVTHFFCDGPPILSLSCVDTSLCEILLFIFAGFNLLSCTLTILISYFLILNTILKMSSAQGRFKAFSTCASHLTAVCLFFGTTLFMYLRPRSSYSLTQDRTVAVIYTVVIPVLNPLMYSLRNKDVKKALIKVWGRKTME
Summary of the method: as §1

O5H14 = tested on: T5, O5H14
T5 sequence (whole entry): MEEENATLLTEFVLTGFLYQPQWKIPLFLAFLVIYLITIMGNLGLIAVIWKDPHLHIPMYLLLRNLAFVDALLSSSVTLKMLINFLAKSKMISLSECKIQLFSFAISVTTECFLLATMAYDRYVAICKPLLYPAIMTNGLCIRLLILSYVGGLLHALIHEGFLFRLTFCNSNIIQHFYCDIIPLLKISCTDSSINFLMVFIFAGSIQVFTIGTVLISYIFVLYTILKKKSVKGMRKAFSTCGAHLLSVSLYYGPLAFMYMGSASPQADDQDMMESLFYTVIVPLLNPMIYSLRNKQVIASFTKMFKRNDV
Summary of the method: as §1

O6C68 = tested on: T6, O6C68
T6 sequence (whole entry): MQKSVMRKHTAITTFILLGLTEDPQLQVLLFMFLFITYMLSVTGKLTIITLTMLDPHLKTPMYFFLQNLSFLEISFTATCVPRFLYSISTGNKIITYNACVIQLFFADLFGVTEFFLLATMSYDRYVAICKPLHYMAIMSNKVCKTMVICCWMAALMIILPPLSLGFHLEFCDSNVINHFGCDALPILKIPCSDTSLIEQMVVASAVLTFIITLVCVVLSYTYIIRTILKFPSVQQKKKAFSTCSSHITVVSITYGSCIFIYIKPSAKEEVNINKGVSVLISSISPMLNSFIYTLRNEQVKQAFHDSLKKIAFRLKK
Summary of the method: as §1

O6C70 = tested on: T7, O6C70
T7 sequence (whole entry): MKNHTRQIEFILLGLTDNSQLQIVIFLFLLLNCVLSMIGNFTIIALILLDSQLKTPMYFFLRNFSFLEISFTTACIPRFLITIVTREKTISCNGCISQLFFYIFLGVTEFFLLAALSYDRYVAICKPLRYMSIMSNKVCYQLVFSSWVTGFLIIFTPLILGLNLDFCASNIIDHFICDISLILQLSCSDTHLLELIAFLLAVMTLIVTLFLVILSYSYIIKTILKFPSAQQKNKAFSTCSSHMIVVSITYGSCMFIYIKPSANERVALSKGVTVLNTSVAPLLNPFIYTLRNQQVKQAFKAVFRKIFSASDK
Summary of the method: as §1

O7E24 = tested on: T8, O7E24
T8 sequence (whole entry): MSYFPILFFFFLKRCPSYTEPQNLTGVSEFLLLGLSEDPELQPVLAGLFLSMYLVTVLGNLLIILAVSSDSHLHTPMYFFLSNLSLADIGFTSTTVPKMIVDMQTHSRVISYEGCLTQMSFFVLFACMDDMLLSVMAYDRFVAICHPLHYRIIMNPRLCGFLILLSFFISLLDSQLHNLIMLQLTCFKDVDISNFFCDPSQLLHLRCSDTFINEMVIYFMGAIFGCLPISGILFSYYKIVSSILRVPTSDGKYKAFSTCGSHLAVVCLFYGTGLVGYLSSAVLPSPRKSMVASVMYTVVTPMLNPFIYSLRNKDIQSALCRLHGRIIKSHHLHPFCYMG
Summary of the method: as §1

OR10A3 (Homo sapiens) = target: T9, OR10A3 (Homo sapiens) (UniProt P58181)
T9 sequence (whole entry): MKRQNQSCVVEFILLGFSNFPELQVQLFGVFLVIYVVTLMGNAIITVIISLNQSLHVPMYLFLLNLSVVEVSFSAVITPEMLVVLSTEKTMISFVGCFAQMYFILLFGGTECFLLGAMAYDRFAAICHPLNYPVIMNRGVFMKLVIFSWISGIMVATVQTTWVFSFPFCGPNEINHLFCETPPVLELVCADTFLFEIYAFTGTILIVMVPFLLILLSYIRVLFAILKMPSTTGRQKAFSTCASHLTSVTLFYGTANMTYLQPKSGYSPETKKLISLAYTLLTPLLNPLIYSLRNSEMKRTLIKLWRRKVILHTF
Summary of the method: as §1

OR10A2 (Homo sapiens) = OR10A2 (Homo sapiens) (UniProt Q9H208)
Summary of the method: as §1

Measured: odorant receptor agonist call

CC1COCc2cc3c(cc21)C(C)(C)C(C)C3(C)C (stereo unspecified)
inactive: O5AN1 | O5AP2 | O6C68
not listed: OR10A2 (Homo sapiens)
active: all other assays above

CC12C=CCC1C1CCC3CC(=O)CCC3(C)C1CC2 (stereo unspecified)
active: O5AP2
not listed: O5AN1
inactive: all other assays above

CCCCCCOC(=O)CCC
not listed: O5AN1 | OR10A2 (Homo sapiens)
inactive: all other assays above

CCCCO
not listed: O5AN1 | OR10A2 (Homo sapiens)
inactive: all other assays above

CC1CCC(C(C)C)C(O)C1 (stereo unspecified)
active: O5H14
not listed: O5AN1 | OR10A2 (Homo sapiens)
inactive: all other assays above

CC12CCC(CC1)C(C)(C)O2
not listed: O5AN1 | OR10A2 (Homo sapiens)
inactive: all other assays above

CCCCCCCCCCC=O
not listed: O5AN1 | OR10A2 (Homo sapiens)
inactive: all other assays above

O=C1CCCCCCCCCCCC(=O)OCCO1
active: O6C68
not listed: OR10A2 (Homo sapiens)
inactive: all other assays above

O=C1CCCCCCCCCCCCCCO1
not listed: OR10A2 (Homo sapiens)
inactive: all other assays above

CC(C)=CCCC(C)=CC=O
active: O6C68
not listed: O5AN1 | OR10A2 (Homo sapiens)
inactive: all other assays above

CC12CCC(C1)C(C)(C)C2=O (stereo unspecified)
not listed: O5AN1 | OR10A2 (Homo sapiens)
inactive: all other assays above

C=CCc1ccc(OC)c(OC)c1
not listed: O5AN1 | OR10A2 (Homo sapiens)
inactive: all other assays above

CC12C=CCC1C1CCC3=CC(=O)CCC3(C)C1CC2 (stereo unspecified)
not listed: O5AN1 | OR10A2 (Homo sapiens)
inactive: all other assays above

CCCCCOC(C)=O
not listed: O5AN1 | OR10A2 (Homo sapiens)
inactive: all other assays above

CCCCCCCC=O
not listed: O5AN1 | OR10A2 (Homo sapiens)
inactive: all other assays above

CC(=O)OC(C)(C)C1CC=C(C)CC1 (stereo unspecified)
not listed: O5AN1 | OR10A2 (Homo sapiens)
inactive: all other assays above

O=C1CCCCC1
not listed: O6C68 | OR10A2 (Homo sapiens)
inactive: all other assays above

CC(C)C(=O)O
not listed: O5AN1 | OR10A2 (Homo sapiens)
inactive: all other assays above

CC(C)CC(=O)O
active: O6C68
not listed: O5AN1 | OR10A2 (Homo sapiens)
inactive: all other assays above

CCC=CCCO
not listed: O5AN1 | OR10A2 (Homo sapiens)
inactive: all other assays above

CC(C)(C)c1ccc(CCC=O)cc1
not listed: O5AN1 | OR10A2 (Homo sapiens)
inactive: all other assays above

COc1ccccc1O
not listed: O5AN1 | OR10A2 (Homo sapiens)
inactive: all other assays above

C=CCc1ccc(OC(C)=O)c(OC)c1
active: O5H14 | O6C68
not listed: O5AN1 | OR10A2 (Homo sapiens)
inactive: all other assays above

COc1cc(C)ccc1O
not listed: O5AN1 | OR10A2 (Homo sapiens)
inactive: all other assays above

Source: the M2OR odorant receptor database
